Experimental data taken from PubChem BioAssay AID1347076 (National Center for Advancing Translational Sciences (NCATS), 2019).
The whole screen tested about 400,000 compounds, of which about 13,000 (3.2%) were called active. The inconclusive results got no clear call from the source; some entries with a clear call stand among them for comparison. The call rests on the fitted dose curve; in most records, active means well fitted cell-killing curve with a large enough effect; inconclusive means small, poorly fitted or top-dose-only effect, or effect the other way; inactive means flat fitted curve, though single readings scatter. Potencies of inconclusive entries are doubtful fits and often do not repeat.

Assay: qHTS assay for MDR1-selective chemotherapeutics: Primary screen using the drug-selected MDR subline cells KB-V1; further: nearly all actives have a fitted effect of over 60% in size
Conditions: KB-V1 MDR cells viability, CellTiter-Glo, 72 h; activity change, negative = cytotoxicity: at 46.1 µM (top of the series)
Procedure, shortened: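 Readout: CellTiter-Glo luminescence, 10 min after addition. Cells: KB-V1 MDR subline, 72 h at 37 degrees C with compound. Analysis: corrected, normalized data fitted to concentration-effect curves.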
On the % scale 0 is the no-effect control and ±100 the full control effect; potency means the concentration at half of the fitted maximal effect.

SMILES | Potency | activity change, negative = cytotoxicity
CCN(c1ccccc1)S(=O)(=O)c1ccc(NC(=S)NC(=O)c2cccs2)cc1 | inactive | 
COc1ccc(NC(=O)C[C@@H]2C(=O)N(c3ccc(OC)cc3)CC2(C)C)cc1 | inconclusive: 13 µM [cytotoxic, partial curve] | 
CC1CCCC(C)N1C(=O)COc1ccc(C(=O)Nc2ccccc2N2CCOCC2)cc1 (configuration not stated) | inconclusive: 6.51 µM [cytotoxic, partial curve] | 
CC1CN(C(=O)N2CCC(C(=O)N3CCN(c4ccccc4)CC3)CC2)c2cc(Cl)ccc2O1 (configuration not stated) | inactive | 
O=C(c1ccccc1)N1CCN(C(=O)c2cc3nc(-c4ccccc4)cc(C(F)(F)F)n3n2)CC1 | inconclusive: 25.9 µM [cytotoxic, partial curve, poor fit] | 
COc1ccc2oc(C(=O)OCc3c(C)noc3C)c(C)c2c1 | inconclusive: 25.9 µM [cytotoxic, partial curve, poor fit] | 
Cn1c(CSc2nc3ccccc3s2)n[nH]c1=S | inactive | 
NC(=O)c1ccc(NC(=O)c2ccc(COc3ccccc3Br)cc2)cc1 | inactive | 
COc1ccc2sc(-c3ccccc3OC)c(C#Cc3cncn3C)c2c1 | inactive | 
CN(C)c1ccc(C(CNC(=O)COc2ccc(Cl)cc2)N2CCCC2)cc1 (configuration not stated) | inactive | 
c1cc(CNCCCN2CCOCC2)ccn1 | inconclusive: 18.4 µM [rising, partial curve, poor fit] | 
Cc1cc(C)c2nc(N3CCC(C(=O)N4CCN(C(=O)c5ccco5)CC4)CC3)sc2c1 | inconclusive: 14.6 µM [cytotoxic, partial curve] | 
C=CCNCC(=O)N1N=C(c2ccc3ccccc3c2)CC1c1ccc(OC)cc1 (configuration not stated) | inactive | 
Cc1cccc(C)c1NC(=O)CN(C)C(=O)CC1CC2CCC1C2 (configuration not stated) | inconclusive: 13 µM [cytotoxic, partial curve] | 
CCCCCCCCN1C(=O)[C@H](CC(=O)N2CCN(C(=O)C3CC3)CC2)C[C@@]2(C(=O)OC)CCCCC=C12 | inconclusive: 9.2 µM [cytotoxic, partial curve] | 
CCc1ccc2[nH]c(=O)c(CN(CCN(C)C)C(=S)NCc3ccco3)cc2c1 | inactive | 
CCn1c(SCC(=O)N2CCC(C(N)=O)(N3CCCCC3)CC2)nnc1-c1ccccc1 | inconclusive: 29.1 µM [rising, single point] | 
O=C(NCc1ccco1)c1cc(-c2cccs2)nc2ccccc12 | inconclusive: 11.6 µM [cytotoxic, partial curve] | 
CC(C)CC(=O)Nc1nc2nc(-c3ccccc3)cc(=O)n2[nH]1 | inconclusive: 29.1 µM [rising, single point] | 
COc1ccc(OC)c(N(CC(=O)NCCSCc2ccc(C)cc2)S(C)(=O)=O)c1 | inconclusive: 18.4 µM [cytotoxic, partial curve, poor fit] | 
CC(=O)c1ccc(NC(=O)CN2CCOCC2)cc1 |  | inconclusive: -4.58%
COCCCNC(=O)C1CCN(C(=O)c2cnn(-c3ccccc3)c2-n2cccc2)CC1 | inactive | 
COc1ccc(-c2nnc3ccc(SC(C)C)nn23)cc1OC | active: 20.6 µM | 
COc1ccc(OC)c(C(=O)NC(CC(N)=O)c2ccc(N3CCCCCC3)c([N+](=O)[O-])c2)c1 (configuration not stated) | inconclusive: 29.1 µM [rising, single point] | 

SMILES | Potency | activity change, negative = cytotoxicity
Cc1cccc(NC(=O)N2CCN(C(=O)c3nsc4ccccc34)CC2)c1C | inactive | 
O=C(NCCS(=O)(=O)N1CCN(c2ccccc2F)CC1)c1cccc(Br)c1 | inactive | 
Cc1ccc(SCC(=O)Nc2ccc(N3CCOCC3)cc2)cc1C | inactive | 
CCC1(C)CC(c2nc(-c3ccc(OC)cc3)cs2)CCS1 (configuration not stated) | inactive | 
O=C(NNc1ncc(C(F)(F)F)cc1Cl)c1c(Cl)cccc1Cl | active: 2.91 µM | 
COCCN(C(=O)COC(=O)c1oc2ccc(OC)cc2c1C)c1c(N)n(Cc2ccccc2)c(=O)[nH]c1=O | inactive | 
CCOC(=O)N/N=C/c1ccc(OCCSc2ccc(Cl)cc2)c(OCC)c1 | inconclusive: 18.4 µM [cytotoxic, partial curve, poor fit] | 
CCN(CC)S(=O)(=O)c1ccc(NC(=O)Nc2cccc(C(F)(F)F)c2)cc1 | active: 13 µM | 
O=C(c1cc(=O)c2ccccc2o1)N1CCN(c2ccccc2F)CC1 | inconclusive: 11.6 µM [cytotoxic, partial curve, poor fit] | 
Cc1ccc(C(=O)NC(=S)Nc2cccc3c(C)cc(C)nc23)cc1 | active: 14.6 µM | 
CCN1C(=O)c2ccccc2Sc2ccc(C(=O)NC(C)C)cc21 | inactive | 
CCC(=O)NC(NC(=S)Nc1cccc2cccnc12)C(Cl)(Cl)Cl (configuration not stated) | inactive | 
CN(c1ccccc1)S(=O)(=O)c1cccc(C(=O)Nc2cccc(C(=O)NC3CC3)c2)c1 | inconclusive: 23.1 µM [cytotoxic, single point] | 
CCCCn1c(SCc2ccc(C(=O)OC)o2)nc2cc(S(N)(=O)=O)ccc21 | inconclusive: 10.3 µM [cytotoxic, partial curve, poor fit] | 
CCOc1ccc(NC(=O)CCN2CCN(S(=O)(=O)c3ccc(OC)cc3)CC2)cc1 | inconclusive: 18.4 µM [cytotoxic, single point] | 
Cc1cc(C(=O)N2CCN(c3ccc([N+](=O)[O-])cc3)CC2)c(C)o1 | inactive | 
CCCCCOC(=O)c1ccc(NC(=O)c2ccco2)cc1 | inconclusive: 18.4 µM [cytotoxic, single point] | 
CC(C)CN1CCNC(=O)C1CC(=O)NCc1cnn(-c2cccc(F)c2)c1 (configuration not stated) | inconclusive: 20.6 µM [rising, single point] | 
O=C(O)c1ccc(N=Nc2c(-c3ccccc3)[nH]oc2=O)cc1 | inactive | 
CCOc1ccccc1CN(CCc1ccc2c(c1)OCO2)Cc1ccccn1 | inconclusive: 14.6 µM [cytotoxic, partial curve] | 
CCOC(=O)/C(C#N)=C\C1=C(N2CCCC2)CC(C)(C)OC1 | inactive | 
CC(C)Oc1ccc(C(=O)Nc2cc(S(=O)(=O)N3CCOCC3)ccc2N2CCOCC2)cc1 | active: 16.4 µM | 
CSc1cc(-c2ccccc2)n(Cc2c(Cl)cccc2Cl)c(=O)c1C#N | inconclusive: 3.66 µM [cytotoxic, partial curve, poor fit] | 

Taken from above:
Cn1c(CSc2nc3ccccc3s2)n[nH]c1=S | Potency: inactive
CCOc1ccc(NC(=O)CCN2CCN(S(=O)(=O)c3ccc(OC)cc3)CC2)cc1 | Potency: inconclusive: 18.4 µM [cytotoxic, single point]
C=CCNCC(=O)N1N=C(c2ccc3ccccc3c2)CC1c1ccc(OC)cc1 (configuration not stated) | Potency: inactive
